# Cleaved PARP in drug-treated melanoma cells

From a melanoma drug combination screen (doi:10.1371/journal.pone.0140310); values rounded.

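Human melanoma cells were exposed to a single drug for 72 h in 1,536-well plates and read by automated microscopy after fixing and staining. Each value is the cleaved-PARP-positive fraction of nuclei relative to DMSO-treated wells, in %, so that 100 equals the control and higher values mean more apoptosis. Concentrations were fixed for each drug; these are the higher of two levels. The file gives one value for each drug and line, without errors, so small differences may be noise. The marker varies much from line to line, for technical or biological reasons.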
Only some of the drugs and lines screened are listed, without regard to their results.

Compound	RPMI-7951	SK-MEL-30	C32	MEL-HO	MeWo
Cn1cc(/C=C2\C(=O)Nc3cccnc32)c2ccccc21 at 2000 nM	63.7	63.3	71.2	111	89.8
C[C@@H](N)c1ccc(C(=O)Nc2ccnc3[nH]ccc23)cc1 at 2000 nM	107	102	268	114	344
Clc1ccc(Nc2nnc(Cc3ccncc3)c3ccccc23)cc1 at 10000 nM	215	69.2	125	49.7	143
O=C(O)c1ccc(-c2c[nH]c3ncc(-c4ccccc4)cc23)cc1C1CCCC1 at 800 nM	43.2	63.5	32.7	47.1	88.6
CCCCCCCCc1ccc(CCC(N)(CO)CO)cc1 at 10000 nM	1590	906	1300	2060	402
Cc1nc(Nc2ncc(C(=O)Nc3c(C)cccc3Cl)s2)cc(N2CCN(CCO)CC2)n1 at 20 nM	240	82.1	503	139	54.7
COc1cc2ncnc(Nc3ccc(Oc4ccccc4)cc3)c2cc1OC at 10000 nM	240	113	88.7	89.0	78.6
C#Cc1cccc(Nc2ncnc3cc(OCCOC)c(OCCOC)cc23)c1 at 4000 nM	135	64.1	77.0	43.9	294
O=C(O)C(=O)Nc1sc2c(c1C(=O)O)CCNC2 at 8330 nM	179	73.1	83.7	87.1	137
N#Cc1c(O)c2c(-c3ccc(-c4ccccc4O)cc3)csc2[nH]c1=O at 10000 nM	44.9	140	72.4	126	109
O=C(O)[C@@H]1[O][Sb](=[O])([O][Sb]2(=[O])[O][C@H]([C@H](O)CO)[C@H](O)[C@H](C(=O)O)[O]2)[O][C@H]([C@H](O)CO)[C@@H]1O (stereo partly specified) at 10000 nM	236	48.7	243	74.5	101
c1cc(-c2cnn3cc(-c4ccc(OCCN5CCCCC5)cc4)cnc23)ccn1 at 2000 nM	81.4	114	134	82.0	26.5
O=S(=O)(c1ccccc1)N(CC(F)(F)F)c1ccc(C(O)(C(F)(F)F)C(F)(F)F)cc1 at 7000 nM	153	101	78.2	160	119
O=c1[nH]nc(Sc2ncc([N+](=O)[O-])s2)n1-c1ccc2c(c1)OCCO2 at 1000 nM	109	124	101	56.6	117
O=C1NC(=O)/C(=C/c2ccc(-c3ccc(F)cc3O)o2)S1 at 5000 nM	68.6	89.0	157	139	202
NC(=O)c1ccc(N(C(N)=O)c2c(F)cccc2F)nc1-c1ccc(F)cc1F at 2000 nM	98.6	103	212	68.5	32.6
Cc1cc(SCc2sc(-c3ccc(C(F)(F)F)c(F)c3)nc2C)ccc1OCC(=O)O at 10000 nM	201	106	283	46.5	254
COc1ccc(C2=N[C@@H](c3ccc(Cl)cc3)[C@@H](c3ccc(Cl)cc3)N2C(=O)N2CCNC(=O)C2)c(OC(C)C)c1 at 500 nM	200	212	85.2	106	80.8
COc1cc([C@@H]2c3cc4c(cc3[C@@H](O[C@@H]3O[C@@H]5CO[C@@H](C)O[C@H]5[C@H](O)[C@H]3O)[C@H]3COC(=O)[C@H]23)OCO4)cc(OC)c1O at 100 nM	190	92.1	145	88.2	62.9
Cn1cc(C2=C(c3cn(C4CCN(Cc5ccccn5)CC4)c4ccccc34)C(=O)NC2=O)c2ccccc21 at 4000 nM	180	105	119	80.9	49.7
Oc1cc(-c2nc(-c3ccccc3)[nH]c2-c2ccncc2)ccc1Cl at 1000 nM	65.6	98.4	498	136	31.2
O=C(Nc1cc(C(F)(F)F)cc(C(F)(F)F)c1)c1cc(Cl)ccc1O at 80 nM	80.6	193	133	80.7	102
Cc1cc(Nc2cc(N3CCN(C)CC3)nc(/C=C/c3ccccc3)n2)n[nH]1 at 200 nM	99.0	102	121	38.7	51.9
O=C(O)c1ccc2c(c1)nc(Nc1cccc(Cl)c1)c1ccncc12 at 2000 nM	114	265	29.5	123	203
CC(=O)O[C@@]12CO[C@@H]1C[C@H](O)[C@@]1(C)C(=O)[C@H](O)C3=C(C)[C@@H](OC(=O)[C@H](O)[C@@H](NC(=O)OC(C)(C)C)c4ccccc4)C[C@@](O)([C@@H](OC(=O)c4ccccc4)[C@H]21)C3(C)C at 0.5 nM	796	286	350	196	1130
C[C@]12O[C@H](C[C@]1(O)CO)n1c3ccccc3c3c4c(c5c6ccccc6n2c5c31)CNC4=O at 20 nM	93.8	125	62.6	86.5	101
COc1ccc(COc2ccc(Cc3cnc(N)nc3N)cc2OC)cc1 at 5000 nM	65.1	82.9	151	74.1	61.6
C=CCNC1=C2C[C@@H](C)C[C@H](OC)[C@H](O)[C@@H](C)/C=C(\C)[C@H](OC(N)=O)[C@@H](OC)/C=C\C=C(/C)C(=O)NC(=CC1=O)C2=O at 10 nM	752	53.3	217	108	236

The first 3 entries again:

{"compound": "Cn1cc(/C=C2\\C(=O)Nc3cccnc32)c2ccccc21 at 2000 nM", "RPMI-7951": 63.7, "SK-MEL-30": 63.3, "C32": 71.2, "MEL-HO": 111, "MeWo": 89.8}
{"compound": "C[C@@H](N)c1ccc(C(=O)Nc2ccnc3[nH]ccc23)cc1 at 2000 nM", "RPMI-7951": 107, "SK-MEL-30": 102, "C32": 268, "MEL-HO": 114, "MeWo": 344}
{"compound": "Clc1ccc(Nc2nnc(Cc3ccncc3)c3ccccc23)cc1 at 10000 nM", "RPMI-7951": 215, "SK-MEL-30": 69.2, "C32": 125, "MEL-HO": 49.7, "MeWo": 143}